Measurements as given in publication PMC7560607, “Synapse type-specific proteomic dissection identifies IgSF8 as a hippocampal CA3 microcircuit organizer” (Nature Communications, 2020).
No constants are given. Whether binding was seen depends on the method and setting. Some binding calls cover weakened binding; strength is not graded here. For some assays here: Where a sequence is shown, tags or fusion partners need not be part of it.

Chains of the proteins cited; added tags and fusions are not shown. Residues count along the entry.
UniProt Q99K10, residues 46-697: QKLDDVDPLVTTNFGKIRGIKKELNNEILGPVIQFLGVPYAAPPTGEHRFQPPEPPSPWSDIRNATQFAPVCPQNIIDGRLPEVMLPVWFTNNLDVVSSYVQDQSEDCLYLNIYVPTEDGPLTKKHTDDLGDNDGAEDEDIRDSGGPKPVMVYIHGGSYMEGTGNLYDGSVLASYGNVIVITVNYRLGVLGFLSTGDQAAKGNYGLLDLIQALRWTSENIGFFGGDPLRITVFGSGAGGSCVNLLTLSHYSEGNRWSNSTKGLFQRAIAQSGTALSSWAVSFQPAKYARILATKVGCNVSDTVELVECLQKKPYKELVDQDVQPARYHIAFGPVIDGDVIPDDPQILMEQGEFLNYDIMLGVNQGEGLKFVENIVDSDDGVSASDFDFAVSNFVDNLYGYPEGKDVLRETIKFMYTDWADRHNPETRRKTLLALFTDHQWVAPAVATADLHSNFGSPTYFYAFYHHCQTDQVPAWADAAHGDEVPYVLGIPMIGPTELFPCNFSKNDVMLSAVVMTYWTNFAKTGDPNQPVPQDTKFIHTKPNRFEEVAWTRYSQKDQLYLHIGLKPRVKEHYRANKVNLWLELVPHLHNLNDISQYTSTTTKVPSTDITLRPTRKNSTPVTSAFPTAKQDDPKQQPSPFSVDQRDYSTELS
UniProt O88998, residues 17-485: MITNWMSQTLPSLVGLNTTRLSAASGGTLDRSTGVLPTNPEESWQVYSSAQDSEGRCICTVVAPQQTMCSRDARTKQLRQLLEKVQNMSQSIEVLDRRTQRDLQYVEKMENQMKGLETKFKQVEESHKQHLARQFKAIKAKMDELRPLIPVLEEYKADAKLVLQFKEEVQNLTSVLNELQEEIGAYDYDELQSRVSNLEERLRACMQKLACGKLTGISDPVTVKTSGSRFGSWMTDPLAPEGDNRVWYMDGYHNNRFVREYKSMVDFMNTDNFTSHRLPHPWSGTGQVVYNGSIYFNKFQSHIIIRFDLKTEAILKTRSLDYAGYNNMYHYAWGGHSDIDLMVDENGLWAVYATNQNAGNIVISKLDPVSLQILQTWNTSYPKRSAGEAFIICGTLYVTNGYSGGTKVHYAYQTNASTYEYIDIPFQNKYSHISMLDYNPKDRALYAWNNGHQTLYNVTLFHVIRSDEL

Assays:
[1] = target: NLGN1 extracellular domain, AP- or Fc-tagged (interactome library) (not stated (human or mouse sequence cloned)) (UniProt Q99K10); assay: ELISA; 384-well pairwise screen; ecto-AP bait captured by plate-bound anti-AP antibody, ecto-Fc prey detected with anti-human IgG1-HRP; conditioned media; 4 h at RT; both orientations, three independent experiments; positive = OD650 > 5-fold over background, detected at least twice
[2] = target: T1, IgSF containing LRR protein 2 extracellular domain, AP- or Fc-tagged (interactome library) (not stated (human or mouse sequence cloned)) (UniProt Q5RKR3); assay: as above
T1 sequence: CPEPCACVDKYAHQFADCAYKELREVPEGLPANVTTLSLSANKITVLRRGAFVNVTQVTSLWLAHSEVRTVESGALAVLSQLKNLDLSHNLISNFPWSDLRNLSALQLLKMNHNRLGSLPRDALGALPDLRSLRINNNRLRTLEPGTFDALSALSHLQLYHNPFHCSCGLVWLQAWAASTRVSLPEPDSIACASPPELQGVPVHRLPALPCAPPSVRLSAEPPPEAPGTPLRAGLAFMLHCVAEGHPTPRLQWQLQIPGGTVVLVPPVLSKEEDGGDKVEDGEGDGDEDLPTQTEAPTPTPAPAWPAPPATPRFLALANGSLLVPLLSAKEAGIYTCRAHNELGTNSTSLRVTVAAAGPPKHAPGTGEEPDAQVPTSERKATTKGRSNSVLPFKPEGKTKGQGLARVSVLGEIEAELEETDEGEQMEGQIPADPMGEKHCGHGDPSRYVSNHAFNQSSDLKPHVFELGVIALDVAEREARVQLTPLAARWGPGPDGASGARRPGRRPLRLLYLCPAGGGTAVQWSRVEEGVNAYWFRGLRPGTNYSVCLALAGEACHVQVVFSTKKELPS

Substance | binding [1] | binding [2]
neuronal olfactomedin-related ER localized protein/olfactomedin-1, AP- or Fc-tagged (interactome library) (from UniProt O88998 17-485) | binds | –
NLGN1 extracellular domain, AP- or Fc-tagged (interactome library) (from UniProt Q99K10 46-697) (domain or fragment) | – | binds
